Experimental data as given in paper PMC5549992.
Results are given in words; binding and its absence hold for the method and conditions named. Some entries that bind do so weakly or less than the wild type. Where a sequence is shown, tags or fusion partners need not be part of it.

By UniProt entry, the sequences of proteins in these tests, tags left out. Residues count along the entry.
UniProt O65934, residues 46-142: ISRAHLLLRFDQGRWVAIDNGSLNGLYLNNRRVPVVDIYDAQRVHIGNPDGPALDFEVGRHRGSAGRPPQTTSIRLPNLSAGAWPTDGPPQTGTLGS

Biological target: T1, Mycobacterium tuberculosis universal stress protein Rv2623, GAL4 DNA-binding domain fusion (pGBKT7::Rv2623) (M. tuberculosis) (UniProt P9WFD7)
T1 sequence: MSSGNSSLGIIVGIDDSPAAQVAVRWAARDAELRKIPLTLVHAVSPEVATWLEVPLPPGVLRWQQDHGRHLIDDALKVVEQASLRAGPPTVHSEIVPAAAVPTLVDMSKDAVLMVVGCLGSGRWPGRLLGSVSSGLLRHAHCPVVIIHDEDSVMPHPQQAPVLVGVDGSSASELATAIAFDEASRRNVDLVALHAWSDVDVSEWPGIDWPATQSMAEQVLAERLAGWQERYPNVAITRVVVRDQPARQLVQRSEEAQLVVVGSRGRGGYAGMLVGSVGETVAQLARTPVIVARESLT
Assay: two-hybrid

“Rv1747 fragment spanning amino acids 46 to 142, GAL4 activation domain fusion (library prey) (from UniProt O65934 46-142) (domain or fragment)” was tested, and the binding was “binds”.
